This passage reports binding results from paper doi:10.1101/2022.12.11.519953.

The chains behind the UniProt entries cited, without tags or fusion partners. Where a name states a change or a piece, a line headed by the entry shows the natural chain unless it says otherwise. A line that says so, or that is headed by a name, gives the form on record, which may keep a tag or linker. Residues count along the entry.
C-terminal half of NF2 isoform 1 (AA M308-595) (P35240, residues 308-595): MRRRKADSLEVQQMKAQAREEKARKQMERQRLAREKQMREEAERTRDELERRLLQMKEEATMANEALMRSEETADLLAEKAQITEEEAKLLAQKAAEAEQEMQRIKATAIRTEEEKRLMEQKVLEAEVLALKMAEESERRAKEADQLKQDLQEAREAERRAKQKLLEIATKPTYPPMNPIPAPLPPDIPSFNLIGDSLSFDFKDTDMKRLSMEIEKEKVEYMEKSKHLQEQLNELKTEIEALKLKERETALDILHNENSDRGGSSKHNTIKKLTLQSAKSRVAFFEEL
C-terminal half of NF2 isoform 7 (AA M225-507) (P35240-4, form named): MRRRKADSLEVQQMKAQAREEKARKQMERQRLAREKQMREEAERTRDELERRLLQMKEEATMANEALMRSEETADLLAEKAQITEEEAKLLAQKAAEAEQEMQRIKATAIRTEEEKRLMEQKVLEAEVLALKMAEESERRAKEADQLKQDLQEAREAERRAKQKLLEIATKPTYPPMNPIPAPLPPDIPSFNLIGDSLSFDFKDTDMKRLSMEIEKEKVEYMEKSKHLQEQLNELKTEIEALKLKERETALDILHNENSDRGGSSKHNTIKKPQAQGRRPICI
UniProt Q9Y6C2: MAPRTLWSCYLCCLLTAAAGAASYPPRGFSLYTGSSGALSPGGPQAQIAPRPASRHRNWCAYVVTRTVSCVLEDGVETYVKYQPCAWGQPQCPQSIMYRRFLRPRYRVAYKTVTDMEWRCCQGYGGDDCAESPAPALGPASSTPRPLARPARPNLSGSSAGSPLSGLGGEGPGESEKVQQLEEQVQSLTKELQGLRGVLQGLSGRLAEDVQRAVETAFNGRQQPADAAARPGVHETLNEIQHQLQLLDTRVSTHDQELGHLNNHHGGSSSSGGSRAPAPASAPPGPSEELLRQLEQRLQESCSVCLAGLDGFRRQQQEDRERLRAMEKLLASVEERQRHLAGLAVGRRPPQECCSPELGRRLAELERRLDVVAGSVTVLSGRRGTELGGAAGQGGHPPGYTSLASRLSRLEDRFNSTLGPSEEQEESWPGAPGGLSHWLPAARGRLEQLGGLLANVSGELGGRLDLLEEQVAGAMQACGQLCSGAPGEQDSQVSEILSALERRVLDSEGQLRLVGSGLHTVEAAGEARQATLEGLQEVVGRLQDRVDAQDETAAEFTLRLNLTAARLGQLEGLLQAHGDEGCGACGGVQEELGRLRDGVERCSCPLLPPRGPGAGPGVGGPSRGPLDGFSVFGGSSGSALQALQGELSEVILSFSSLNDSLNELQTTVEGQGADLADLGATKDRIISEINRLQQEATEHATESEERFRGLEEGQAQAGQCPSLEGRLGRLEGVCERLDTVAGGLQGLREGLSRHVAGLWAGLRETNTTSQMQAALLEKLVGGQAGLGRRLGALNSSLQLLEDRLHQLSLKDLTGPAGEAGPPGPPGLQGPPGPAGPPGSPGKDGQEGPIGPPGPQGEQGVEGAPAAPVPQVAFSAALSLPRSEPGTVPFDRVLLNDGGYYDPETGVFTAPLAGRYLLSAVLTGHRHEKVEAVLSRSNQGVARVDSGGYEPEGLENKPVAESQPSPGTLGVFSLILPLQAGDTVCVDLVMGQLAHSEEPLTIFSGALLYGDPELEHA

No constants are given. Whether binding was seen depends on the method and setting.

In this experiment the target is NF2 isoform 1 with an exon 16 derived C-terminus (human) (UniProt P35240). Briefly: two-hybrid.

As to “C-terminal half of NF2 isoform 1 (AA M308-595) (from UniProt P35240-1 308-595) (domain or fragment)”, the binding result is on record as “no binding”.
The result for “C-terminal half of NF2 isoform 7 (AA M225-507) (from UniProt P35240-4 225-507) (domain or fragment)” reads “no binding”; that for “elastin microfibril interfacer 1 protein (from UniProt Q9Y6C2 1-1016)”, “no binding”; that for “phosphoinositide-3-kinase regulatory subunit 3 (from UniProt Q92569 1-461)”, “no binding”.
